Assay results: patent publication US11639360B2, “Oxazine compound and application thereof” (DALIAN UNIVERSITY OF TECHNOLOGY, priority 2018, dated 2023)

Test: Singlet oxygen yield determination under illumination (DPBF, methylene blue as reference)
Format: physicochemical
Conditions: methanol, xenon lamp 660 nanometers

CC/N=c1/cc2sc3c4c5c(cc3nc-2c2ccccc12)CCCN5CCC4 [Compound F-1]
singlet oxygen photon yield: about 0.018

CC/N=c1/cc2[te]c3c4c5c(cc3nc-2c2ccccc12)CCCN5CCC4 [Compound F-3]
singlet oxygen photon yield: about 0.73

CC/N=c1/cc2[se]c3c4c5c(cc3nc-2c2ccccc12)CCCN5CCC4 [Compound F-2]
singlet oxygen photon yield: about 0.47
